Reference: article PMC4640659, “Antidepressant- and Anxiolytic-Like Effects of New Dual 5-HT1A and 5-HT7 Antagonists in Animal Models” (PLoS ONE, 2015)
Where “and” joins values, the source holds several entries; their conditions need not be identical. Equal values may be shown once. Where a name gives a salt, the structure may show the parent alone.

How the values were obtained:
mice = test: Locomotor activity in mice (photoresistor actometers); assay type: in vivo; settings: for Influence on locomotor activity, 1-min session / Influence on locomotor activity, 4-min session: all doses tested
rats = test: Exploratory activity in rats (EPM apparatus); assay type: in vivo; settings: 5-min test
[1] = 1.25 mg/kg i.p. 30 min before test, Table 3
[2] = 2.5 mg/kg i.p. 30 min before test, Table 3
[3] = 2.5 mg/kg i.p. 30 min before test, Table 6, 2.5 mg/kg
[4] = 5 mg/kg i.p. 30 min before test, Table 3
[5] = 2.5 mg/kg i.p. 30 min before test
[6] = 5 mg/kg i.p. 30 min before test
[7] = 1.25 mg/kg i.p. 30 min before test
[8] = WAY-100635 0.1 mg/kg s.c., Table 6, 0.1 mg/kg
[9] = pCPA 200 mg/kg i.p. once daily for 3 days, Table 6

COc1ccccc1N1CCN(CCOCCOc2c(C)cccc2Cl)CC1 [HBK-15, 2-[2-(2-chloro-6-methylphenoxy)ethoxy]ethyl-4-(2-methoxyphenyl)piperazynine dihydrochloride]
Number of crossings, 4 min (mice; 0.625 mg/kg i.p. 30 min before test, Table 3): 531 | Number of crossings (mice; 0.625 mg/kg i.p. 30 min before test, Table 5, 0.625 mg/kg): 399 and 349 and 477 | Number of crossings, 1 min (mice; [1]): 108 | Number of crossings, 4 min (mice; [1]): 459 | Number of crossings, 4 min (mice; 1.25 mg/kg i.p. 30 min before test, Table 6): 360 | Number of crossings, 1 min (mice; [2]): 98 | Number of crossings, 4 min (mice; [2]): 411 | Number of crossings, 4 min (mice; 2.5 mg/kg i.p. 30 min before test, Table 6): 356 | Number of crossings, 1 min (mice; [3]): 99 and 93 | Number of crossings, 1 min (mice; [4]): 103 | Number of crossings, 4 min (mice; [4]): 442 | Influence on locomotor activity, 1-min session (mice): Neither HBK-14 nor HBK-15 influenced locomotor activity | Influence on locomotor activity, 4-min session (mice): Neither HBK-14 nor HBK-15 influenced locomotor activity | Total arm entries (rats; [5]): 18.2 | Total distance travelled (rats; [5]): 36.3 m | Total arm entries (rats; [6]): 16.8 | Total distance travelled (rats; [6]): 30.9 m

CNCCC(Oc1ccc(C(F)(F)F)cc1)c1ccccc1 (stereo not drawn) [fluoxetine, reference compound]
Number of crossings (mice; 10 mg/kg i.p. 30 min before test, Table 5, 10 mg/kg): 488 and 393

COc1ccccc1N1CCN(CCOCCOc2c(C)cccc2C)CC1 [HBK-14, 1-{2-[2-(2,6-dimethlphenoxy)ethoxy]ethyl}-4-(2-methoxyphenyl)piperazynine hydrochloride]
Number of crossings, 1 min (mice; [1]): 93 | Number of crossings, 4 min (mice; [1]): 488 | Number of crossings (mice; 1.25 mg/kg i.p. 30 min before test, Table 5, 1.25 mg/kg): 356 and 511 | Number of crossings, 1 min (mice; [2]): 95 | Number of crossings, 4 min (mice; [2]): 542 | Number of crossings, 1 min (mice; [3]): 99 and 105 | Number of crossings, 4 min (mice; [3]): 363 and 344 | Number of crossings, 1 min (mice; [4]): 98 | Number of crossings, 4 min (mice; [4]): 424 | Influence on locomotor activity, 1-min session (mice): Neither HBK-14 nor HBK-15 influenced locomotor activity | Influence on locomotor activity, 4-min session (mice): Neither HBK-14 nor HBK-15 influenced locomotor activity | Total arm entries (rats; [7]): 23.0 | Total distance travelled (rats; [7]): 36.1 m | Total arm entries (rats; [5]): 20.7 | Total distance travelled (rats; [5]): 30.0 m | Total arm entries (rats; [6]): 34.8 | Total distance travelled (rats; [6]): 39.1 m

COc1ccccc1N1CCN(CCN(C(=O)C2CCCCC2)c2ccccn2)CC1.Cl.Cl.Cl [WAY-100635, N-{2-[4-(2-methoxyphenyl)-1-piperazinyl]ethyl}-N-(2-pyridinyl)cyclohexanecarboxamide trihydrochloride, reference compound]
Number of crossings, 1 min (mice; [8]): 95 and 107 | Number of crossings, 4 min (mice; [8]): 402 and 454

CN1C(=O)CN=C(c2ccccc2)c2cc(Cl)ccc21 [Diazepam, diazepam, reference compound]
Total arm entries (rats; [7]): 15.8 | Total distance travelled (rats; [7]): 29.1 m | Total arm entries (rats; [5]): 17.0 | Total distance travelled (rats; [5]): 31.9 m

N[C@@H](Cc1ccc(Cl)cc1)C(=O)O (racemic) [pCPA, p-Chlorophenylalanine, reference compound]
Number of crossings, 1 min (mice; [9]): 88 and 99 | Number of crossings, 4 min (mice; [9]): 408 and 370

CC(NC(C)(C)C)C(=O)c1cccc(Cl)c1 (stereo not drawn) [bupropion, reference compound]
Number of crossings (mice; 2.5 mg/kg i.p. 30 min before test, Table 5, 2.5 mg/kg): 418 and 409

CCOc1ccccc1OC(c1ccccc1)C1CNCCO1 (stereo not drawn) [reboxetine, reference compound]
Number of crossings (mice; 5 mg/kg i.p. 30 min before test, Table 5, 5 mg/kg): 393 and 366
